Measured values published in US12048316B2, “Sweetener and flavor compositions, methods of making and methods of use thereof” (EPC Natural Products Co., Ltd., priority 2018, dated 2024).

Assay: Sensory evaluation (smell, color, taste) of Maillard reaction samples
Parameters: species or system human
[1] = Table 52.2, samples prepared in Example 50
[2] = Table 52.5, samples prepared in Example 50

## C=C1C[C@@]23CC[C@H]4[C@@](C)(CCC[C@@]4(C)C(=O)O[C@@H]4O[C@H](CO)[C@@H](O)[C@H](O)[C@H]4O)[C@@H]2CC[C@]1(O[C@@H]1O[C@H](CO)[C@@H](O)[C@H](O[C@@H]2O[C@H](CO)[C@@H](O)[C@H](O)[C@H]2O)[C@H]1O[C@@H]1O[C@H](CO)[C@@H](O)[C@H](O)[C@H]1O)C3 [Reb-A, Rebaudioside A]
[1]
  Smell: neutral/unpleasant

## NCCCC[C@H](N)C(=O)O [0.1 mMol Lys, Lysine]
Table 52.3, samples prepared in Example 50
  Smell: Popcorn

## C[C@H](N)C(=O)O [0.1 mMol Ala, Alanine]
[1]
  Smell: Agar

## O=C[C@H](O)[C@H]1OC(=O)[C@@H](O)[C@H]1O [Glucuronolactone]
[2]
  Smell: Burnt sugar
Table 57.3, after reaction, 10 ml KH2PO4, pH 7.8, 2.5 h, 120 °C
  Smell: Burnt sugar

## O=C[C@H](O)[C@@H](O)[C@H](O)[C@H](O)C(=O)O [Glucuronic Acid]
[2]
  Smell: burnt bread

## O=C[C@H](O)[C@@H](O)[C@H](O)CO [Xyl, xylose]
Table 52.1, samples prepared in Example 50
  Smell: neutral/meat
Table 52.6, sugar alone
  Smell: Slightly Popcorn
Table 52.7, samples prepared in Example 50
  Smell: neutral
